## Primary screen of a compound library

Sequences of proteins named here, by UniProt entry; tags and fusion partners are left off.
UniProt E9BF75, entry or part of it: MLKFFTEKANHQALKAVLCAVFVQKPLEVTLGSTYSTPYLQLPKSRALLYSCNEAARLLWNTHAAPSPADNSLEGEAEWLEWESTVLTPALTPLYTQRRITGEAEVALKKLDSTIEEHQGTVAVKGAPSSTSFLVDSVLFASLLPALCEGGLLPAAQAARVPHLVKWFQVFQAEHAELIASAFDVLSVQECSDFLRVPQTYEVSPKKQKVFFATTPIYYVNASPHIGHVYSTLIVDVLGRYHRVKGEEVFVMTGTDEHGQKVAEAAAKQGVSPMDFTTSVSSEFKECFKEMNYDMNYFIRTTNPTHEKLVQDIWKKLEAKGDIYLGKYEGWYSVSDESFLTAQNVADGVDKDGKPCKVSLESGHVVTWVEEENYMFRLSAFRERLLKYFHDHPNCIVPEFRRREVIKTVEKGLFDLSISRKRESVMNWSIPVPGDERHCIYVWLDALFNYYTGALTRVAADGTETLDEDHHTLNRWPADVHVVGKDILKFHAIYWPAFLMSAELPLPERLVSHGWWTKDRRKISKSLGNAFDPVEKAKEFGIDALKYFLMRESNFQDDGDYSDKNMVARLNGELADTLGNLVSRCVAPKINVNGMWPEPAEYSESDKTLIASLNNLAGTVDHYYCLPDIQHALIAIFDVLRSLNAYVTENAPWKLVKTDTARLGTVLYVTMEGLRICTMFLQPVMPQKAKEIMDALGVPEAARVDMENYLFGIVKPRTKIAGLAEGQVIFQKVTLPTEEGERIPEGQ

From ChEMBL document CHEMBL3988442, “University of Dundee, Small-Polar-MMV Screening Library” (2021).

Mtb heat-shock: 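Assay on Mycobacterium tuberculosis, filed only as a heat shock assay from Cornell; the read-out is not stated. The concentration is filed as 10 mM, unlikely as a test dose, so the dose is not known. The record gives no direction; compounds that gave an IC50 in retests scored well above the rest, so higher reads as stronger inhibition. About 69,000 compounds were tested under these conditions; 1.4% (about 930) showed 50% or more at least once.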
LdMetRS: 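Methionyl-tRNA synthetase (putative), Leishmania donovani (UniProt E9BF75). Primary screen of methionyl-tRNA synthetase; the read-out is not stated. The test concentration is not given. Values are per cent inhibition. Size under these conditions: about 68,000 compounds, about 24 of them at 50% or above in at least one test.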
Mtb growth Cornell: 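Whole-cell assay for inhibitors of Mycobacterium tuberculosis growth, labelled Cornell in the record; the read-out is not stated. The concentration is filed as 10 mM, unlikely as a test dose, so the dose is not known. Higher means stronger inhibition (inferred from two other growth screens of the library). Of about 53,000 compounds tested this way, about 900 (1.7%) reached 50% or more in at least one test.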

All values are in %. How 0% and 100% were set is not recorded. Most values in the screen are low, and negative values occur. This is an unselected part of the compounds tested.

- Cc1cccc2c1cnn2CCCNC(=O)c1cnn(C)c1 | Mtb heat-shock: 4.943%; LdMetRS: -42.96%
- O=C(COC[C@H]1CC[C@H]2[C@H](CCN2c2ccccn2)O1)N1CCCC1 | LdMetRS: 13.77%
- Cc1cc(NC(=O)CN2CCc3nn(C)c(=O)cc3C2)on1 | Mtb heat-shock: 13.56%; LdMetRS: 14.16%; Mtb growth Cornell: -37.84%
- CC(C)Cn1ccnc1CNC(=O)NC(C)c1nccs1 (configuration not stated) | Mtb heat-shock: 55.14%; LdMetRS: 10.53%; Mtb growth Cornell: 40.62%
- NC(=O)c1cccc(CN2CCc3c(ncn3C3CC3)C2)c1 | Mtb heat-shock: 21.78%; LdMetRS: 12.11%
- O=C(O)C(F)(F)F.[H][C@]12CCC(=O)N(CC3CCOCC3)[C@@]1([H])CCN2Cc1c(C)noc1C | Mtb heat-shock: 19.97%; Mtb growth Cornell: 9.626%
- O=C(NCC1CC1)c1cc2c(s1)CCN2C(=O)c1cccnc1 | Mtb heat-shock: -15.2%; LdMetRS: 6.849%; Mtb growth Cornell: 29.42%
- O=C1CCC(=O)N1c1nn(Cc2ccccc2Cl)cc1Cl | Mtb heat-shock: -5.677%; LdMetRS: 9.459%; Mtb growth Cornell: -1.887%
- O=C(c1ccnnc1)N1C[C@H](Oc2cccnc2)[C@H]2OCCC[C@H]21 | LdMetRS: 15.24%
- Cc1nc(C2(O)CCCNCC2)sc1CCOc1ccccc1Cl (configuration not stated) | LdMetRS: 14.89%
- CC(C)c1nn(C)c(Cl)c1CNCC(=O)N1CCN(C)CC1.Cl | Mtb heat-shock: 20.07%; Mtb growth Cornell: 8.339%
- CCCn1ccnc1-c1nccn1CCn1cnnc1 | Mtb heat-shock: -6.327%; LdMetRS: 13.4%; Mtb growth Cornell: 12.83%
- CC(C)CCn1nc2ccc(S(=O)(=O)N3CCOCC3)cn2c1=O | Mtb heat-shock: -1.462%; LdMetRS: 15.45%; Mtb growth Cornell: 4.546%
- Cn1cnc2cc(C(=O)NS(=O)(=O)c3ccc(F)cc3)ccc21 | Mtb heat-shock: -10.44%; LdMetRS: 12.43%
- Cc1nn(C)c(N(C)C)c1CNCc1cccc(Cl)c1 | Mtb heat-shock: 8.894%; LdMetRS: 7.117%
- COc1ccc(-n2cccn2)c(CN2CCOCC(CN(C)C)C2)c1 (configuration not stated) | Mtb heat-shock: -15.83%; LdMetRS: 6.991%; Mtb growth Cornell: -0.1828%
- COCCN1CCCC(c2ncc(C(=O)N3CCOCC3)c(C)n2)C1 (configuration not stated) | Mtb heat-shock: 15.43%; LdMetRS: 10.76%; Mtb growth Cornell: -5.414%
- COCCN1CCN(Cc2nccs2)[C@H]2CS(=O)(=O)C[C@H]21 | LdMetRS: 17.03%
- O=C(c1nn(-c2ccccc2F)cc1O)N1CCCSCC1 | Mtb heat-shock: 16.7%; LdMetRS: 5.028%
- Cc1noc(-c2ccc(N3CCCC(C(=O)N4CCSCC4)C3)nc2)n1 (configuration not stated) | Mtb heat-shock: 15%; LdMetRS: 6.404%; Mtb growth Cornell: -5.421%
- O=C(C1CCOCC1)N1CCO[C@H]2[C@@H](OCc3ccncc3)CC[C@@H]21 | LdMetRS: 15.24%
- C[C@@H]1CN(C(=O)c2ccc(=O)[nH]c2)CC[C@@]1(O)C1CCOCC1 | Mtb heat-shock: 6.231%; LdMetRS: 18.06%; Mtb growth Cornell: -25.76%
- Cc1occc1C(=O)N1CCc2c(CNS(C)(=O)=O)cncc2C1 | LdMetRS: 11.23%
- CC(C)NS(=O)(=O)c1cc(C(=O)O)cc(-c2ccccc2CO)c1 | Mtb heat-shock: 27.86%; LdMetRS: 3.559%

Once more, the final 3:

Result for C[C@@H]1CN(C(=O)c2ccc(=O)[nH]c2)CC[C@@]1(O)C1CCOCC1 was Mtb heat-shock: 6.231%; LdMetRS: 18.06%; Mtb growth Cornell: -25.76%.
Result for Cc1occc1C(=O)N1CCc2c(CNS(C)(=O)=O)cncc2C1 was LdMetRS: 11.23%.
Result for CC(C)NS(=O)(=O)c1cc(C(=O)O)cc(-c2ccccc2CO)c1 was Mtb heat-shock: 27.86%; LdMetRS: 3.559%.